{
  "source": "the supplement of paper PMC8728848",
  "binders": {"B1": {"name": "BT4246 (Bacteroides thetaiotaomicron), Q89ZX5 (protein)", "chain": "MGSSHHHHHHENLYFQGHMASDYLDVVPPEQPNIDDAMSSPTRALGFLYSCYGGVSTDLPSAYLGEINSTTDEYVLPYSWNTDGYWGAYAFNTASSTNQDWLWGTTYQYIGQCYLFLQKLENAGSDIASDAEKEQWRAECQFLVAYYHFATLRRYGPIPITDSYIPMDTPTSEYNGRFHFDYCVDWIANQLDEAAKVLPANRTVTNEWGRATSTIAKAVKARLLLYAASPLWNGSFPYPNWQNENFETPGYGKALVSNTYDKSKWERALAACQEALTLATTSGDRELYDDDEYYSRQSLNLPFVPGVADVEDNKEFLKNVMKMRYAVSTRESEGNKEIIWGLSNQFDFYSRYPLRILKKSDGTWHAGYSGVSPTLYTFEHFYTANGKLPEKDLDFTPSSEWFESAGISSREDIIKLNVGREPRFYAWMAFDGGDYGTKFAAGSPLKLEMRNSEMHGYNPSLFNRDHSVTGFLTQKFVDPVTEFYTAGGSTSGTSAPTILFRLAELYLNVAECHAALGNTQEAIDALNPVRERAGIPKLTLADITNNMTIKDWVHNERFVELWNEGHRFFDVRRWAEGAKYFGANKREGLNAEVQSPTFEEFNKRTTVDAPYVWENRMYLNPVFYNEVYKNPQMVQAPGY"}},
  "test_in_all_cases": "glycan array binding signal (z-score within array); higher = stronger binding",
  "conditions_in_all_cases": "glycan notation: IUPAC condensed, linker removed",
  "key": {"[1]": {"molecular_target": "Gal(b1-4)GalNAc(b1-3)[Fuc(a1-2)]Gal(b1-4)GlcNAc", "outline": "(§1)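 Glycan array data came from 3228 arrays in the Consortium for Functional Glycomics database, and only arrays with an available protein sequence were kept. Glycan names were put into IUPAC-condensed notation, and columns mapping to the same glycan were averaged. The binding signal is a within-array Z-score, averaged across arrays of one protein sequence run at different concentrations or buffers and across linkers. A negative Z-score can be read as non-binding.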"}, "Gal(b1-4)Glc": {"molecular_target": "Gal(b1-4)Glc", "outline": "as §1"}, "Gal(b1-4)Glc6S": {"molecular_target": "Gal(b1-4)Glc6S", "outline": "as §1"}, "Gal(b1-4)GlcNAc": {"molecular_target": "Gal(b1-4)GlcNAc", "outline": "as §1"}, "[2]": {"molecular_target": "Gal(b1-4)GlcNAc(a1-6)Gal(b1-4)GlcNAc", "outline": "as §1"}, "Gal(b1-4)GlcNAc(b1-2)Man": {"molecular_target": "Gal(b1-4)GlcNAc(b1-2)Man", "outline": "as §1"}, "[3]": {"molecular_target": "Gal(b1-4)GlcNAc(b1-2)Man(a1-3)Man(b1-4)GlcNAc(b1-4)GlcNAc", "outline": "as §1"}, "[4]": {"molecular_target": "Gal(b1-4)GlcNAc(b1-2)Man(a1-3)[Gal(b1-4)GlcNAc(b1-2)Man(a1-6)]Man(b1-4)GlcNAc(b1-4)GlcNAc", "outline": "as §1"}, "[5]": {"molecular_target": "Gal(b1-4)GlcNAc(b1-2)Man(a1-3)[Gal(b1-4)GlcNAc(b1-2)Man(a1-6)]Man(b1-4)GlcNAc(b1-4)[Fuc(a1-6)]GlcNAc", "outline": "as §1"}, "[6]": {"molecular_target": "Gal(b1-4)GlcNAc(b1-2)Man(a1-3)[Gal(b1-4)GlcNAc(b1-2)Man(a1-6)][Gal(b1-4)GlcNAc(b1-4)]Man(b1-4)GlcNAc(b1-4)[Fuc(a1-6)]GlcNAc", "outline": "as §1"}, "[7]": {"molecular_target": "Gal(b1-4)GlcNAc(b1-2)Man(a1-3)[Gal(b1-4)GlcNAc(b1-2)Man(a1-6)][GlcNAc(b1-4)]Man(b1-4)GlcNAc(b1-4)[Fuc(a1-6)]GlcNAc", "outline": "as §1"}, "[8]": {"molecular_target": "Gal(b1-4)GlcNAc(b1-2)Man(a1-3)[GlcNAc(b1-2)Man(a1-6)]Man(b1-4)GlcNAc(b1-4)GlcNAc", "outline": "as §1"}, "[9]": {"molecular_target": "Gal(b1-4)GlcNAc(b1-2)Man(a1-3)[GlcNAc(b1-4)][Gal(b1-4)GlcNAc(b1-2)Man(a1-6)]Man(b1-4)GlcNAc(b1-4)GlcNAc", "outline": "as §1"}, "[10]": {"molecular_target": "Gal(b1-4)GlcNAc(b1-2)Man(a1-3)[Man(a1-6)]Man(b1-4)GlcNAc(b1-4)GlcNAc", "outline": "as §1"}, "[11]": {"molecular_target": "Gal(b1-4)GlcNAc(b1-2)Man(a1-6)Man(b1-4)GlcNAc(b1-4)GlcNAc", "outline": "as §1"}, "[12]": {"molecular_target": "Gal(b1-4)GlcNAc(b1-2)Man(a1-6)[GlcNAc(b1-2)Man(a1-3)]Man(b1-4)GlcNAc(b1-4)GlcNAc", "outline": "as §1"}, "[13]": {"molecular_target": "Gal(b1-4)GlcNAc(b1-2)Man(a1-6)[Man(a1-3)]Man(b1-4)GlcNAc(b1-4)GlcNAc", "outline": "as §1"}, "[14]": {"molecular_target": "Gal(b1-4)GlcNAc(b1-2)[Gal(b1-4)GlcNAc(b1-4)]Man(a1-3)[Gal(b1-4)GlcNAc(b1-2)Man(a1-6)]Man(b1-4)GlcNAc(b1-4)GlcNAc", "outline": "as §1"}, "[15]": {"molecular_target": "Gal(b1-4)GlcNAc(b1-2)[Gal(b1-4)GlcNAc(b1-4)]Man(a1-3)[Gal(b1-4)GlcNAc(b1-2)[Gal(b1-4)GlcNAc(b1-6)]Man(a1-6)]Man(b1-4)GlcNAc(b1-4)GlcNAc", "outline": "as §1"}, "[16]": {"molecular_target": "Gal(b1-4)GlcNAc(b1-2)[Gal(b1-4)GlcNAc(b1-4)]Man(a1-3)[GlcNAc(b1-4)][Gal(b1-4)GlcNAc(b1-2)Man(a1-6)]Man(b1-4)GlcNAc(b1-4)GlcNAc", "outline": "as §1"}, "[17]": {"molecular_target": "Gal(b1-4)GlcNAc(b1-2)[Gal(b1-4)GlcNAc(b1-4)]Man(a1-3)[GlcNAc(b1-4)][Gal(b1-4)GlcNAc(b1-2)[Gal(b1-4)GlcNAc(b1-6)]Man(a1-6)]Man(b1-4)GlcNAc(b1-4)GlcNAc", "outline": "as §1"}, "[18]": {"molecular_target": "Gal(b1-4)GlcNAc(b1-2)[Gal(b1-4)GlcNAc(b1-6)]Man(a1-6)[Gal(b1-4)GlcNAc(b1-2)Man(a1-3)]Man(b1-4)GlcNAc(b1-4)GlcNAc", "outline": "as §1"}, "[19]": {"molecular_target": "Gal(b1-4)GlcNAc(b1-2)[Gal(b1-4)GlcNAc(b1-6)]Man(a1-6)[Gal(b1-4)GlcNAc(b1-2)Man(a1-3)]Man(b1-4)GlcNAc(b1-4)[Fuc(a1-6)]GlcNAc", "outline": "as §1"}, "[20]": {"molecular_target": "Gal(b1-4)GlcNAc(b1-2)[Gal(b1-4)GlcNAc(b1-6)]Man(a1-6)[GlcNAc(b1-4)][Gal(b1-4)GlcNAc(b1-2)Man(a1-3)]Man(b1-4)GlcNAc(b1-4)GlcNAc", "outline": "as §1"}, "[21]": {"molecular_target": "Gal(b1-4)GlcNAc(b1-2)[Gal(b1-4)GlcNAc(b1-6)]Man(a1-6)[GlcNAc(b1-4)][Gal(b1-4)GlcNAc(b1-2)[Gal(b1-4)GlcNAc(b1-4)]Man(a1-3)]Man(b1-4)GlcNAc(b1-4)[Fuc(a1-6)]GlcNAc", "outline": "as §1"}, "[22]": {"molecular_target": "Gal(b1-4)GlcNAc(b1-3)Gal(b1-3)GalNAc", "outline": "as §1"}, "[23]": {"molecular_target": "Gal(b1-4)GlcNAc(b1-3)Gal(b1-3)GlcNAc", "outline": "as §1"}, "[24]": {"molecular_target": "Gal(b1-4)GlcNAc(b1-3)Gal(b1-4)Glc", "outline": "as §1"}, "[25]": {"molecular_target": "Gal(b1-4)GlcNAc(b1-3)Gal(b1-4)GlcNAc", "outline": "as §1"}, "[26]": {"molecular_target": "Gal(b1-4)GlcNAc(b1-3)Gal(b1-4)GlcNAc(b1-2)Man(a1-3)[Gal(b1-4)GlcNAc(b1-3)Gal(b1-4)GlcNAc(b1-2)Man(a1-6)]Man(b1-4)GlcNAc(b1-4)GlcNAc", "outline": "as §1"}},
  "note": "Some of the results follow.",
  "data": [
    {"binder": "B1", "values": [
      {"measurement": "glycan array binding signal (z-score)", "setting": "[1]", "value": -0.68},
      {"measurement": "glycan array binding signal (z-score)", "setting": "Gal(b1-4)Glc", "value": 0.047},
      {"measurement": "glycan array binding signal (z-score)", "setting": "Gal(b1-4)Glc6S", "value": 0.15},
      {"measurement": "glycan array binding signal (z-score)", "setting": "Gal(b1-4)GlcNAc", "value": -1.31},
      {"measurement": "glycan array binding signal (z-score)", "setting": "[2]", "value": -0.67},
      {"measurement": "glycan array binding signal (z-score)", "setting": "Gal(b1-4)GlcNAc(b1-2)Man", "value": 0.532},
      {"measurement": "glycan array binding signal (z-score)", "setting": "[3]", "value": -1.13},
      {"measurement": "glycan array binding signal (z-score)", "setting": "[4]", "value": -0.968},
      {"measurement": "glycan array binding signal (z-score)", "setting": "[5]", "value": -0.554},
      {"measurement": "glycan array binding signal (z-score)", "setting": "[6]", "value": -0.434},
      {"measurement": "glycan array binding signal (z-score)", "setting": "[7]", "value": -0.489},
      {"measurement": "glycan array binding signal (z-score)", "setting": "[8]", "value": -1.08},
      {"measurement": "glycan array binding signal (z-score)", "setting": "[9]", "value": 0.387},
      {"measurement": "glycan array binding signal (z-score)", "setting": "[10]", "value": 2.35},
      {"measurement": "glycan array binding signal (z-score)", "setting": "[11]", "value": -0.53},
      {"measurement": "glycan array binding signal (z-score)", "setting": "[12]", "value": 0.135},
      {"measurement": "glycan array binding signal (z-score)", "setting": "[13]", "value": 0.036},
      {"measurement": "glycan array binding signal (z-score)", "setting": "[14]", "value": -0.145},
      {"measurement": "glycan array binding signal (z-score)", "setting": "[15]", "value": -0.529},
      {"measurement": "glycan array binding signal (z-score)", "setting": "[16]", "value": 0.217},
      {"measurement": "glycan array binding signal (z-score)", "setting": "[17]", "value": 0.603},
      {"measurement": "glycan array binding signal (z-score)", "setting": "[18]", "value": -1.01},
      {"measurement": "glycan array binding signal (z-score)", "setting": "[19]", "value": -0.607},
      {"measurement": "glycan array binding signal (z-score)", "setting": "[20]", "value": -0.45},
      {"measurement": "glycan array binding signal (z-score)", "setting": "[21]", "value": -0.593},
      {"measurement": "glycan array binding signal (z-score)", "setting": "[22]", "value": -0.874},
      {"measurement": "glycan array binding signal (z-score)", "setting": "[23]", "value": -1.17},
      {"measurement": "glycan array binding signal (z-score)", "setting": "[24]", "value": -0.144},
      {"measurement": "glycan array binding signal (z-score)", "setting": "[25]", "value": 1.75},
      {"measurement": "glycan array binding signal (z-score)", "setting": "[26]", "value": 0.897}
    ]}
  ]
}
